# Source: PMC4863586
# Biological target: ROP54 with C-terminal 2×Strep 3×Flag epitope tag (ROP54SFII) (Toxoplasma gondii (type II, Pru∆ku80))
# Test: co-IP; ROP54SFII parasite lysate (0.5% NP-40, 150 mM NaCl, protease inhibitors) on Strep-Tactin beads 4 h at room temperature, eluted with 10 mM desthiobiotin; 10% of the eluate probed by Western blot for known ROP kinases and pseudokinases; untagged Pru∆ku80 as control
binder,measurement,value
"ROP4 (protein, UniProt Q5Y808 34-578) RQRPHQWKSSEAALSVSPAGDIVDKYSRDSTEGENTVSEGEAEGSRGGSWLEQEGVELRSPSQDSQTGTSTASPTGFRRLLRRLRFWRRGSTRGSDDAAEVSRRTRVPLHTRLLQHLRRVARIIRHGVSAAAGRLFGRVRQVEAERPQPVFTEGDPPDLETNSLYYRDKVPGQGIIQEILRQKPGIAHHPESFSVVAADERVSRTLWAEGGVVRVASELGQPGRVLVRGRRIGLFRPGMQFEATDQATGEPMTALVGHTVLEATARDVDSMRNEGLAVGLFQKVKNPYLANRYLRFLAPFDLVTIPGKPLVQKAKSRNEVGWVKNLLFLLPPTHVDMETFVDEIGRFPQEDRPLADAARLYLTVQAVRLVAHLQDEGVVHGKIMPDSFCLKREGGLYLRDFGSLVRAGAKVVVPAEYDEYTPPEGRAAARSRFGSGATTMTYAFDAWTLGSVIFLIWCSRAPDTKSGYEYSVEFFFSRCRRVPENVKLLVYKLINPSVEARLLALQAIETPEYREMEEQLSAASRLYSGDGTLTGGDDDMPPLET",binding,no binding

# No constants are given. Whether binding was seen depends on the method and setting. In cells and extracts the contact can be indirect.
